Measurements published in patent US20110021746A1 (published 2011).
These are yes or no findings as the source states them, for the method shown. Some results given as binding are weak or reduced against the parent protein; the word gives no strength.

Amino acid sequences for entries named in this document (tags omitted). Residues count along the entry.
UniProt P30530, residues 26-449: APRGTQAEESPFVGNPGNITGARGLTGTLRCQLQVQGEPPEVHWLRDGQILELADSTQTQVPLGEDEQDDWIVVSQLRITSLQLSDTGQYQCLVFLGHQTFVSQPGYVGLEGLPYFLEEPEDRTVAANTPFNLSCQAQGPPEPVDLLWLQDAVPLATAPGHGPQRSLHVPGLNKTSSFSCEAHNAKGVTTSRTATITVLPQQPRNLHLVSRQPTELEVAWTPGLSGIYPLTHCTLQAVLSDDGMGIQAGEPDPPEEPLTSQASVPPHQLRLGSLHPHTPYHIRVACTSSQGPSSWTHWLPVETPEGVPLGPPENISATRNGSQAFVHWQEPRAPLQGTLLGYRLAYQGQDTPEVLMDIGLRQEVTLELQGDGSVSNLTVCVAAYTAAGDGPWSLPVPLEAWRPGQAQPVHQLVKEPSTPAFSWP

Target: Axl (UniProt P30530)
Assay: phage display selection

binding	Binder
binds	SEQ ID NO 374 (designed binder) NVSPPRRARVTDATETTITISWAPAASTVVGLQVDAVPANGQTPIQRTIKPDVRSYTITGLQPGTDYKIYLYTLTMVGAGAVGSSPVVIDAST
binds	SEQ ID NO 380 (designed binder) NVSPPRRARVTDATETTITIRWALPASTVVGFQVDAVPANGQTPIQRTIKPDVRSYTITGLQPGTDYKIYLYTLNIRGNSASASSPVVIDAST
binds	SEQ ID NO 385 (designed binder) NVSPPRRARVTDATETTITISWRTKTETITGFQVDAVPANGQTPIQRTIDADIHTYTITGLQPGTDYKIYLYTLNEIGDSKYRSSPVVIDAST
binds	SEQ ID NO 382 (designed binder) NVSPPRRARVTDATETTITITWTRARSTVVGFQVDAVPANGQTPIQRTIKPDVRSYTITGLQPGTDYKIYLYTLTVIGDSAYSSSPVVIDAST
binds	SEQ ID NO 386 (designed binder) NVSPPRRARVTDATETTITISWRTKTETITGFQVDAVPANGQTPIQRTITPTASGYTITGLQPGTDYKIYLYTLNDREKASSPVVIDAST
binds	SEQ ID NO 399 (designed binder) NVSPPRRARVTDATETTITISWRTKTETITGFQVDAVPANGQTPIQRTIDPSKSGYTITGLQPGTDYKIYLYTLKSGGRASSPVVIDAST
binds	SEQ ID NO 376 (designed binder) NVSPPRRARVTDATETTITIRWERAPSKFVGFQVDAVPANGQTPIQRTIKPDVRSYTITGLQPGTDYKIYLYTLYGYVSGSSPVVIDAST
binds	SEQ ID NO 377 (designed binder) NVSPPRRARVTDATETTITITWTVPRSKFVGFQVDAVPANGQTPIQRTIKPDVRSYTITGLQPGTDYKIYLYTLYGYVSGSSPVVIDAST
binds	SEQ ID NO 379 (designed binder) NVSPPRRARVTDATETTITITWEAPVRANSILISFQVDAVPANGQTPIQRTIKPDVRSYTITGLQPGTDYKIYLYTLKNYESSSSPVVIDAST
binds	SEQ ID NO 383 (designed binder) NVSPPRRARVTDATETTITISWGVGFQVDAVPANGQTPIQRTIKRGKTVYTITGLQPGTDYKIYLYTLNDNARSSPVVIDAST
binds	1637112_AXLA04 (designed binder) NVSPPRRARVTDATETTITISWRTSFQVDAVPANGQTPIQRTIKRGVTSYTITGLQPGTDYKIYLYTLNDNARSSPVVIDAST
binds	SEQ ID NO 394 (designed binder) NVSPPRRARVTDATETTITISWRTKTETITGFQVDAVPANGQTPIQRTIATNVHSYTITGLQPGTDYKIYLYTLTKRGTGSSPVVIDAST
binds	SEQ ID NO 396 (designed binder) NVSPPRRARVTDATETTITISWRTKTETITGFQVDAVPANGQTPIQRTIAAATRSYTITGLQPGTDYKIYLYTLTKYRAASSPVVIDAST
binds	SEQ ID NO 373 (designed binder) NVSPPRRARVTDATETTITIRWGVPGFQVDAVPANGQTPIQRTIHRATNIYTITGLQPGTDYKIYLYTLNDNARSSPVVIDAST
binds	SEQ ID NO 397 (designed binder) NVSPPRRARVTDATETTITIRWAEPGFQVDAVPANGQTPIQRTIKRTARVYTITGLQPGTDYKIYLYTLNDNARSSPVVIDAST
binds	SEQ ID NO 384 (designed binder) NVSPPRRARVTDATETTITISWRTKTETITGFQVDAVPANGQTPIQRTINSGARVYTITGLQPGTDYKIYLYTLNGYGVGTHASSPVVIDAST
binds	SEQ ID NO 391 (designed binder) NVSPPRRARVTDATETTITISWRTKTETITGFQVDAVPANGQTPIQRTINSGARSYTITGLQPGTDYKIYLYTLNGYGVGTLASSPVVIDAST
binds	SEQ ID NO 390 (designed binder) NVSPPRRARVTDATETTITISWRTKTETITGFQVDAVPANGQTPIQRTIAASIHVYTITGLQPGTDYKIYLYTLNGYGVGESRSSPVVIDAST
binds	SEQ ID NO 398 (designed binder) NVSPPRRARVTDATETTITISWRTKTETITGFQVDAVPANGQTPIQRTIASNIHSYTITGLQPGTDYKIYLYTLTGYGVGTHGSSPVVIDAST
binds	SEQ ID NO 393 (designed binder) NVSPPRRARVTDATETTITISWRTKTETITGFQVDAVPANGQTPIQRTIASNIHSYTITGLQPGTDYKIYLYTLNGYGVGTVSSSPVVIDAST
binds	SEQ ID NO 400 (designed binder) NVSPPRRARVTDATETTITISWRTKTETITGFQVDAVPANGQTPIQRTINRNAHTYTITGLQPGTDYKIYLYTLNGYGVGTVSSSPVVIDAST
binds	SEQ ID NO 388 (designed binder) NVSPPRRARVTDATETTITISWRTKTETITGFQVDAVPANGQTPIQRTINSAAHVYTITGLQPGTDYKIYLYTLTGYGVGTDASSPVVIDAST
binds	SEQ ID NO 387 (designed binder) NVSPPRRARVTDATETTITISWRTKTETITGFQVDAVPANGQTPIQRTITATISGYTITGLQPGTDYKIYLYTLNGYGVGTVRSSPVVIDAST
binds	SEQ ID NO 389 (designed binder) NVSPPRRARVTDATETTITISWRTKTETITGFQVDAVPANGQTPIQRTINRNAHSYTITGLQPGTDYKIYLYTLTGYGVGTLGSSPVVIDAST
binds	SEQ ID NO 395 (designed binder) NVSPPRRARVTDATETTITISWRTKTETITGFQVDAVPANGQTPIQRTIATGARVYTITGLQPGTDYKIYLYTLTGYGVGQAASSPVVIDAST
binds	SEQ ID NO 381 (designed binder) NVSPPRRARVTDATETTITISWEGSPSTFIGFQVDAVPANGQTPIQRTIKPDVRSYTITGLQPGTDYKIYLYTLPDSGRSSSPVVIDAST
binds	SEQ ID NO 378 (designed binder) NVSPPRRARVTDATETTITISWKKPKHNGGSKLTGFQVDAVPANGQTPIQRTIKPDVRSYTITGLQPGTDYKIYLYTLYRRLGASSPVVIDAST
binds	SEQ ID NO 375 (designed binder) NVSPPRRARVTDATETTITIRWEGRGVIGFQVDAVPANGQTPIQRTIKPDVRSYTITGLQPGTDYKIYLYTLTVVGNSAFASSPVVIDAST
